This is an account of results in PubChem BioAssay AID1487 (National Center for Advancing Translational Sciences (NCATS), 2009).

SMILES strings stand for the structures. Values joined by “and” are separate entries in the source; they are usually repeats but may differ in a detail not shown here. Equal values may be shown once. The list shows a part of the results. Further columns of the screen follow, without active or inactive calls. The list favours compounds with an active or inconclusive main result. The note in brackets gives the kind of curve behind each potency; many fits are weak.

This experiment in a line: qHTS Assay for Modulators of Lamin A Splicing. Conditions: HeLa LMNA splicing GFP/RFP minigene ratio, 48 h. The method, boiled down: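 S3 HeLa stable clones carrying a lamin A-EGFP splicing minigene plus DsRed2 were seeded at 600 cells/well in Opti-MEM with 2% FBS, pin-dosed and incubated 48 h at 37°C. Acumen cytometry (488 nm) gave the GFP/RFP total-intensity ratio.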
In general terms: qHTS replaces the single test concentration by a dilution series.

[1] abbreviates: measured here: RFP viability control channel.
Where [2] appears, read: measured here: GFP splicing reporter channel.

The AC50 is the concentration giving half of the maximal activity seen. For the compound `CCOC(=O)C(NCCc1ccccc1F)(NC(C)=O)C(F)(F)F` (stereo unspecified), under setting [1], the AC50 was 17.8 µM [rising, single point].
On the same count and under the same terms, the value for `O=C(CSCc1ccccc1)Nc1nccs1` was 3.16 µM [rising, single point]; that for `CCc1nc(NCCN2CCOCC2)c(C#N)c2c1CCCC2` was 12.6 µM [rising, partial curve, poor fit].
Consider `C=CCNC(=O)c1onc(CSc2cc(C)ccc2C)c1C(=O)O`, for which the AC50 under setting [2] is 20 µM [falling, single point].
On to `O=C(NCc1ccccc1)c1cccc(COc2ccccc2Cl)c1`, for which the AC50 under setting [2] was 35.5 µM [falling, single point].
As for `COC(=O)Nc1nnc(CCc2ccccc2)s1`, the AC50 under setting [1] is 0.0891 µM [rising, single point].
Take `CCOC(=O)c1nnn(CC(=O)N2N=C(c3cccc4ccccc34)CC2c2ccccc2)c1C(=O)OCC` (stereo unspecified): the AC50 under setting [1] was 10 µM [rising, partial curve, poor fit].
The same measure, in the same setting: with `CC12CC(NC(=O)N1c1cccc(C(=O)Nc3ncn[nH]3)c1)c1ccccc1O2` (stereo unspecified) the figure was 8.91 µM [rising, partial curve, poor fit].
With `CNCCc1ccccn1`, the AC50 under setting [2] is 31.6 nM [falling, partial curve, poor fit] and 35.5 nM [rising, full curve]; the AC50 under setting [1] is 44.7 nM [falling, single point] and 3.98 µM [rising, full curve, poor fit].
In the case of `COc1ccc(NC(=O)N2CCC(Cc3ccccc3)CC2)cc1`, under setting [2], the AC50 was 31.6 µM [falling, single point].
Take `COc1ccc(C(CC(=O)O)NC(=O)C2CCCCC2)cc1` (stereo unspecified): the AC50 under setting [1] was 0.0316 µM [falling, full curve].
As for `Cc1scc(C(=O)NNC(=S)NC(C)c2ccccc2)c1C` (stereo unspecified), the AC50 was 8.91 µM [rising, single point] under setting [2] and 25.1 µM [rising, single point] under setting [1].
Turning to `Cn1cc(-c2nc3cnc(N4CCNCC4)nc3n(C3CC3)c2=O)c2ccccc21`, the AC50 is 12.6 µM [falling, partial curve] under setting [2] and 14.1 µM [falling, partial curve] under setting [1].
`CCOC(=O)c1ccc(S(=O)(=O)Nc2cc(C(=O)O)ccc2Cl)cc1`: the AC50 was 0.00316 µM [falling, full curve, poor fit] under setting [2] and 0.00316 µM [falling, full curve, poor fit] under setting [1].
Regarding `CC1CCc2cc(F)ccc2N1C(=O)c1cc2nc(-c3ccco3)cc(C(F)(F)F)n2n1` (stereo unspecified), under setting [1], the AC50 is 11.2 µM [rising, partial curve].
In the case of `CCCC1=Nc2cc(C(=O)NCc3ccco3)ccc2Sc2ccccc21`, the concentration at half-maximal activity (AC50) was 35.5 µM [falling, single point] under setting [2] and 2.51 µM [falling, partial curve, poor fit] under setting [1].
`O=[N+]([O-])c1ccc(NNC(=S)Nc2ccccc2)cc1`: under setting [1], the AC50 was 35.5 µM [rising, single point].
In the case of `Cc1csc(NC(=O)c2c(O)c3c(n(CC(C)C)c2=O)CCCC3)n1`, the concentration at half-maximal activity (AC50) under setting [1] is 5.62 µM [rising, single point].
Consider `COc1ccc(S(=O)(=O)n2nc(OC(=O)c3ccccc3)cc2N)cc1`, for which the AC50 under setting [1] is 3.55 µM [falling, single point].
`Nc1nc2c(s1)CCc1c-2cnn1-c1ccccc1`: the AC50 under setting [1] is 6.31 µM [falling, partial curve, poor fit].
As for `Cn1cc(CN(CCCN2CCOCC2)C(=S)Nc2cccc(Cl)c2)c2ccccc21`, the AC50 under setting [2] is 28.2 µM [rising, single point] and the AC50 under setting [1] was 15.8 µM [rising, partial curve].
Turning to `CCC(C)(C)NC(=O)C(c1ccc(OC)cc1)N(Cc1cccs1)C(=O)CCC(=O)Nc1cc(C)on1` (stereo unspecified), the AC50 runs as follows: under setting [2], 12.6 µM [rising, partial curve, poor fit]; under setting [1], 28.2 µM [rising, single point].
On to `CCOC(=O)N1CCc2c(sc3c2c(=O)n(Cc2ccccc2)c(=O)n3Cc2cccc(C)c2)C1`, for which the AC50 under setting [1] is 11.2 µM [rising, single point].
For `CC1(C)Cc2ccccc2C(c2cc3ccccc3oc2=O)=N1`, under setting [1], the AC50 is 22.4 µM [rising, partial curve].
`O=C(Nc1cccc(S(=O)(=O)N2CCCCC2)c1)c1ccc2c(c1)OCO2`: the AC50 reads like this: under setting [2], 12.6 µM [rising, partial curve]; under setting [1], 12.6 µM [rising, partial curve].
For the compound `Cc1ccc(-n2c(C)cc(/C=N/NC(=O)Cn3c4ccccc4c(=O)c4ccccc43)c2C)cc1`, the AC50 under setting [1] was 17.8 µM [rising, single point].
`CCCOc1c(Cl)cc(C(=O)NC)cc1OC`: the AC50 under setting [2] is 0.0158 µM [rising, full curve, poor fit].
`N/C(=N\OC(=O)CC1CCCCC1)c1ccncc1`: the AC50 under setting [2] was 25.1 µM [falling, partial curve, poor fit].
On to `CSC1=NC(C)(C)C=C(/C=C/c2ccc(Cl)cc2)N1`, for which the AC50 is, setting by setting: under setting [2], 0.398 µM [rising, full curve, poor fit]; under setting [1], 0.562 µM [rising, full curve, poor fit].
Take `COC(=O)C(Cc1ccccc1)NC(=O)COc1ccc(C(C)(C)C)cc1` (stereo unspecified): under setting [1], the AC50 is 31.6 µM [rising, single point].
Regarding `Cc1ccccc1C(=O)Nc1ccnc(-c2ccncc2)n1`, the AC50 under setting [2] is 0.0891 µM [falling, full curve, poor fit].
For `Cc1ccccc1Nc1nn2c(=O)c3ccc(C(=O)NCc4ccccc4)cc3nc2s1`, the AC50 under setting [2] was 1.41 µM [rising, full curve] and the AC50 under setting [1] was 2.82 µM [rising, partial curve].
For the compound `C=CCOc1ccccc1CN1CCSCC1`, the AC50 under setting [2] is 15.8 µM [rising, single point].
As to `CCC(=O)N1CCN(c2ccc(Cl)cc2NC(=O)c2cccc([N+](=O)[O-])c2)CC1`, under setting [1], the concentration at half-maximal activity (AC50) was 14.1 µM [rising, partial curve].
For `CCOC(=O)c1ccc(NC(=O)c2ccc(CN3CCOCC3)cc2)cc1`, under setting [1], the AC50 is 7.94 µM [rising, partial curve].
For the compound `O=C(c1ccc2nc(N3CCCCC3)sc2c1)N1CCN(Cc2ccc3c(c2)OCO3)CC1`, the AC50 under setting [2] was 22.4 µM [rising, single point] and the AC50 under setting [1] is 20 µM [rising, partial curve].
On to `COc1cc2c(cc1NC(=O)COC(=O)C(CCSC)NC(=O)c1ccccc1Cl)oc1ccccc12` (stereo unspecified), for which the half-maximal activity concentration (AC50) under setting [2] is 0.2 µM [rising, partial curve].
In the case of `O=C(Nc1cccc(S(=O)(=O)Nc2ccc(Cl)cc2)c1)c1ccc2c(c1)OCCO2`, the AC50 was 0.794 µM [rising, partial curve] under setting [2] and 3.16 µM [rising, partial curve] under setting [1].
As for `COc1ccc2c(c1)CCc1sc(NC(=O)c3cccc(Br)c3)nc1-2`, the AC50 under setting [1] was 2.24 µM [falling, partial curve, poor fit].
On to `O=C(COc1ccccc1Cl)Nc1nc(-c2cccs2)cs1`, for which the AC50 under setting [2] was 31.6 µM [rising, single point] and the half-maximal activity concentration (AC50) under setting [1] was 31.6 µM [rising, single point].
Regarding `Fc1ccccc1N1CC(c2ccccc2)C(c2cccs2)=N1` (stereo unspecified), the AC50 under setting [2] was 35.5 µM [rising, single point].
For the compound `CC12CC(NC(=O)N1CCc1ccccc1)c1ccccc1O2` (stereo unspecified), the AC50 under setting [2] is 10 µM [rising, partial curve].
As for `Oc1ccc(/C=N/Nc2ncc(Br)cn2)c(O)c1`, the AC50 under setting [1] was 25.1 µM [rising, single point].
As to `O=C(CSc1nc(=O)[nH]c2c1CCC2)Nc1cc(C(F)(F)F)ccc1Cl`, under setting [2], the AC50 was 35.5 µM [falling, single point].
In the case of `Cc1cccc(C(=O)Nc2ccc3nc(SCC(=O)N4CCCC4)sc3c2)c1`, the AC50 is 5.62 µM [falling, partial curve, poor fit] under setting [2] and 1.58 µM [falling, full curve, poor fit] under setting [1].
Turning to `COc1ccccc1-c1nnc(NC(=O)c2ccc(S(=O)(=O)N(C)Cc3ccccc3)cc2)o1`, the AC50 under setting [1] is 7.08 µM [rising, partial curve].
Take `CCOC(=O)c1[nH]c(C)c(CCC(=O)N2CCN(c3cc(C)ccc3C)CC2)c1C`: the AC50 runs as follows: under setting [2], 4.47 µM [rising, partial curve, poor fit]; under setting [1], 1.41 µM [rising, full curve].
For `Clc1cccc(COn2c(-c3ccc(Cl)cc3Cl)nc3ncccc32)c1`, under setting [1], the AC50 was 14.1 µM [rising, single point].
`O=C(Cc1ccc(F)cc1)Nc1nnc(SCC(=O)N2CCCCC2)s1`: the AC50 under setting [2] is 44.7 µM [rising, partial curve, poor fit].
As for `CC(Sc1nnnn1-c1ccc(Cl)cc1)C(=O)NCC(=O)Nc1ccc(F)c(F)c1F` (stereo unspecified), the AC50 under setting [2] is 31.6 µM [rising, single point] and the AC50 under setting [1] was 35.5 µM [rising, single point].
Turning to `COc1ccc(-c2cc(-c3cccs3)nc3sc(C#N)c(N)c23)cc1`, the AC50 by setting is: under setting [2], 1.41 µM [rising, full curve, poor fit]; under setting [1], 1.58 µM [rising, full curve, poor fit].
Take `COc1n[nH]c(C(=O)Nc2nc3ccccc3s2)c1[N+](=O)[O-]`: the AC50 was 6.31 µM [falling, partial curve] under setting [2] and 6.31 µM [falling, partial curve, poor fit] under setting [1].
As to `Cc1cccc(C(=O)O/N=C/c2c(N3CCOCC3)n(C)c3ccccc23)c1`, the AC50 is 7.94 µM [falling, partial curve] under setting [2] and 7.94 µM [falling, partial curve] under setting [1].
For `CCN(C(=O)c1ccc2c(Cl)c3c(nc2c1)CCC3)c1cccc(C)c1`, the half-maximal activity concentration (AC50) reads like this: under setting [2], 11.2 µM [rising, partial curve]; under setting [1], 15.8 µM [rising, single point].
As to `CCOC(=O)c1ccc(-n2c(O)c(/C=N/NC(=O)C3COc4ccccc4O3)c3ccccc3c2=O)cc1` (stereo unspecified), the AC50 is 14.1 µM [falling, partial curve] under setting [2] and 20 µM [falling, single point] under setting [1].
